Target: T1, SWAP-70-like adaptor of T cells (SLAT), endogenous mouse protein (mouse, UniProt Q8C2K1 1-630)
T1 construct: Endogenous full-length protein, immunoprecipitated or pulled down from lysates of stimulated mouse T cells; also called Def6; IBP
Test: GST pull-down of SLAT from stimulated T cell lysates

B1: GST-IP3R1-f2.1 Δ18 (residues 346-490 deleted of residues 400-417) (other, not shown: a dimerising Fc or GST; small tags and cut ends)
chain: NAQEKMVYSLVSVPEGNDISSIFELDPTTLRGGDSLVPRNSYVRLRHLCTNTWVIGTSPVKEDKEAFAIVPVSPAEVRDLDFANDASKVLGSIAGKLEKGTITQNERRSVTKLLEDLVYFVTGGTNS
binding result: no binding
